Assay results as given in the supplement of paper PMC12823440, “Inhibitors supercharge kinase turnover through native proteolytic circuits” (Nature, 2025).
Counter-ions that a name gives are not always drawn. The list shows a part of the results. Hit calls seldom repeat between salt and free forms of one compound.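 In K562 cells expressing nanoluciferase-fused kinases, luminescence was recorded at 4 h intervals between 2 and 18 h, normalized as percent of control with DMSO at 100% and a positive control at 0%. A significant (2 sigma) signal drop marks a time point as decreased. The authors' rule for a hit is not shown and takes in more than the number of time points.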

The chains behind the UniProt entries cited, without tags or fusion partners. Where a name states a change or a piece, a line headed by the entry shows the natural chain unless it says otherwise.
UniProt Q9UQM7, whole entry: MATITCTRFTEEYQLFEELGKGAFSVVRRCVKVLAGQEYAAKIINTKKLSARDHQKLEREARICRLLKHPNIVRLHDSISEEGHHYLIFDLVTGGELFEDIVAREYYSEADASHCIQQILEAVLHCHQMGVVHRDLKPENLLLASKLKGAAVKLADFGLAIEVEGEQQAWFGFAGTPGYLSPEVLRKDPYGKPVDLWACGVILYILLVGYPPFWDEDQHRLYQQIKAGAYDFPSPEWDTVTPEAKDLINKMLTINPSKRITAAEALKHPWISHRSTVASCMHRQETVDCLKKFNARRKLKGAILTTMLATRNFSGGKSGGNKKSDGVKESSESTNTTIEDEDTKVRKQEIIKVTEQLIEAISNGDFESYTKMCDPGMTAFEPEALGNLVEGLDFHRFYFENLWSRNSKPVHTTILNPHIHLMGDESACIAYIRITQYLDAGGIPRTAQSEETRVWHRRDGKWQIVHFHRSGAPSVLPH
UniProt Q13555: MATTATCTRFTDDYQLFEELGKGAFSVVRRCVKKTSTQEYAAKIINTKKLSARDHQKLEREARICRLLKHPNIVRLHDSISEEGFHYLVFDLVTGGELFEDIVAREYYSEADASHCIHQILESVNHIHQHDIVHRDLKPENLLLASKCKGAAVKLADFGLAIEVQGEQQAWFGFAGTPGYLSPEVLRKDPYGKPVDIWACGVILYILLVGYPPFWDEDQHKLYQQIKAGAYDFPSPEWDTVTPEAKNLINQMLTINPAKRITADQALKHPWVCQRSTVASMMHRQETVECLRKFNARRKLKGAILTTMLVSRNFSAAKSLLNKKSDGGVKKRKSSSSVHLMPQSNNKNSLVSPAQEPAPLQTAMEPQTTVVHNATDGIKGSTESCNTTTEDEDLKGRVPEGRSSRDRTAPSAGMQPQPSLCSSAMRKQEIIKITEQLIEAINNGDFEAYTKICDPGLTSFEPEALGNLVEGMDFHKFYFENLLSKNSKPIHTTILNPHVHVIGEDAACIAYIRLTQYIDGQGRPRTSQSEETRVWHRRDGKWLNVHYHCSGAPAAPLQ
UniProt Q15131: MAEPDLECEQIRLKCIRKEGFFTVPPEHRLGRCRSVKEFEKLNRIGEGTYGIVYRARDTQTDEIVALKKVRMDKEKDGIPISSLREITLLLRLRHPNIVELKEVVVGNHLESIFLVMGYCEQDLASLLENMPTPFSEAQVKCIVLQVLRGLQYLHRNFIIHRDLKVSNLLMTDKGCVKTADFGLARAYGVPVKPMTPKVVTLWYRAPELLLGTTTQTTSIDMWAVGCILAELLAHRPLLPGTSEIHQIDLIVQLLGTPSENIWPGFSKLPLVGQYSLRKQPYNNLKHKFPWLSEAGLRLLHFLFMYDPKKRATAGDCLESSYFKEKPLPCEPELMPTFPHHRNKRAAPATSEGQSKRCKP
UniProt Q00526: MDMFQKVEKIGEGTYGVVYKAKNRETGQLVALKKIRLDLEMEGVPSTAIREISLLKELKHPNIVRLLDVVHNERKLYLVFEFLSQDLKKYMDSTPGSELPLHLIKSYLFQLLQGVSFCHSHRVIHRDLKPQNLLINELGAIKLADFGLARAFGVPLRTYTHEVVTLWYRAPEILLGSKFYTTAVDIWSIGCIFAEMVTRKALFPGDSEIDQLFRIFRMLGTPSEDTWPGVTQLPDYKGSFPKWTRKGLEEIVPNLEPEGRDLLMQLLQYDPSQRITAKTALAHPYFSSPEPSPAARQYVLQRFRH
UniProt Q00535, whole entry, looked up: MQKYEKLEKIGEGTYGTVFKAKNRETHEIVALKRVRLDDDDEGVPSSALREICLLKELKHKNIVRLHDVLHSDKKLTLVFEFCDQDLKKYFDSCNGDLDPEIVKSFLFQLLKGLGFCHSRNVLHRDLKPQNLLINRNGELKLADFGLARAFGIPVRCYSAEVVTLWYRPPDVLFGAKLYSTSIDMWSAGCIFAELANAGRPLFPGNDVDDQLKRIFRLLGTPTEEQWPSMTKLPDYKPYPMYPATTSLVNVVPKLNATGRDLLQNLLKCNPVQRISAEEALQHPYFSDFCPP
UniProt Q00534, whole entry: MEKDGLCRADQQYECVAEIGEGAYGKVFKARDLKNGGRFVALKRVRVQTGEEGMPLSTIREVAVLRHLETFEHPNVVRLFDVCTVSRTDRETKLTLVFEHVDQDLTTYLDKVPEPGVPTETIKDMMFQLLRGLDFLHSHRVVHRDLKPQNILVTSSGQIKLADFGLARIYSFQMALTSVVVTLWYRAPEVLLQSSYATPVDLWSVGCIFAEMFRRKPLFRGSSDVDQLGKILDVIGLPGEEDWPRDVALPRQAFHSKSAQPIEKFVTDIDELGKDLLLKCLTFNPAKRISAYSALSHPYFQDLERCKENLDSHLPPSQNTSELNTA
UniProt O96017, whole entry: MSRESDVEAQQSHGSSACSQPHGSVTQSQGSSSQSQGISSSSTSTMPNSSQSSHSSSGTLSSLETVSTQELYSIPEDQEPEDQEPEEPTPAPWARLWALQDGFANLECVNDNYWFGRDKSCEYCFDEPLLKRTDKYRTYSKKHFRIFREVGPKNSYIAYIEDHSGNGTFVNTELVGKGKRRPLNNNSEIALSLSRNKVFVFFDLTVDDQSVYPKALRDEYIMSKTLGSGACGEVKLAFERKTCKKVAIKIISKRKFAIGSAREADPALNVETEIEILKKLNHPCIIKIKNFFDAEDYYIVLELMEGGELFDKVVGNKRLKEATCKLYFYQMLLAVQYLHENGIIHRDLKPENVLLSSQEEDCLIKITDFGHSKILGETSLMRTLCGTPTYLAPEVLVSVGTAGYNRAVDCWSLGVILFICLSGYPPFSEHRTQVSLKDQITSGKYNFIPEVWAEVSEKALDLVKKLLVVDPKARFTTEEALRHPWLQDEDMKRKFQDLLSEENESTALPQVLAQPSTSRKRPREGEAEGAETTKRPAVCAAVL
UniProt P07333, whole entry: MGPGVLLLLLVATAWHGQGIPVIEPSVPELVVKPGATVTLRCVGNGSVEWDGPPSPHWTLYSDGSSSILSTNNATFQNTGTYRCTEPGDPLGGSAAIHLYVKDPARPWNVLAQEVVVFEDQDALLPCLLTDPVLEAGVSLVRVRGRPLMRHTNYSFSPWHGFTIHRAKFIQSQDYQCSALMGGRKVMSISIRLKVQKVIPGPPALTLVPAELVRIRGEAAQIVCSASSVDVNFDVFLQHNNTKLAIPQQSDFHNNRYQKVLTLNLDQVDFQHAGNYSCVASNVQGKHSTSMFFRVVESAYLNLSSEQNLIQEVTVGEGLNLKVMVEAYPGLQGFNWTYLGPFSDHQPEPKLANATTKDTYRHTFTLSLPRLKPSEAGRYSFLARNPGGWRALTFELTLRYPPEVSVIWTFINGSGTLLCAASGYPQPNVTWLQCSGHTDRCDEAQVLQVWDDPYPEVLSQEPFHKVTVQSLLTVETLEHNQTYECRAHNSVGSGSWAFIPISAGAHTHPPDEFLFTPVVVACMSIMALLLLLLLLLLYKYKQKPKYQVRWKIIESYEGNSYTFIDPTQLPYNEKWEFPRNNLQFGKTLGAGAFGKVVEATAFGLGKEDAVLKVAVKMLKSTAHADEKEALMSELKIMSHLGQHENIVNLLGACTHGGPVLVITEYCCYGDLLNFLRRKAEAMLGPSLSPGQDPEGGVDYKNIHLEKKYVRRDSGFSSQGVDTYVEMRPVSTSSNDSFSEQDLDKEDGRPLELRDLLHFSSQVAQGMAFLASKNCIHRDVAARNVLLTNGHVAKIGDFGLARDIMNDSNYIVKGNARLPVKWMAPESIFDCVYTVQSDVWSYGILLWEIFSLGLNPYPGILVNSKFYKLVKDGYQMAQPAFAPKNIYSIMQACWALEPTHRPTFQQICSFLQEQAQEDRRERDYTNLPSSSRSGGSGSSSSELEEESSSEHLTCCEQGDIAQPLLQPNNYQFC
UniProt P41240: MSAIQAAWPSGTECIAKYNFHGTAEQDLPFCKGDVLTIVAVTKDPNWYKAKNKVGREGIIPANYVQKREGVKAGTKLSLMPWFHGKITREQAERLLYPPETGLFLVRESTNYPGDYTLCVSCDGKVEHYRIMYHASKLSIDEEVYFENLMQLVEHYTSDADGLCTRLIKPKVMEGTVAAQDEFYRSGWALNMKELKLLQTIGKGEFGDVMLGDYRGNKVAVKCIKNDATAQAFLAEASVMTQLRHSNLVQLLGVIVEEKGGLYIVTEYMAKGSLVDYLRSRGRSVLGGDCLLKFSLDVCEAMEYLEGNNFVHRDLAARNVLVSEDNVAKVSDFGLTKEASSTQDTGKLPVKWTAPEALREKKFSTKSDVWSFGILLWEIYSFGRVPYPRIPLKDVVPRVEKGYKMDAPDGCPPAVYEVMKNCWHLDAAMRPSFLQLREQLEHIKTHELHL
UniProt P48729: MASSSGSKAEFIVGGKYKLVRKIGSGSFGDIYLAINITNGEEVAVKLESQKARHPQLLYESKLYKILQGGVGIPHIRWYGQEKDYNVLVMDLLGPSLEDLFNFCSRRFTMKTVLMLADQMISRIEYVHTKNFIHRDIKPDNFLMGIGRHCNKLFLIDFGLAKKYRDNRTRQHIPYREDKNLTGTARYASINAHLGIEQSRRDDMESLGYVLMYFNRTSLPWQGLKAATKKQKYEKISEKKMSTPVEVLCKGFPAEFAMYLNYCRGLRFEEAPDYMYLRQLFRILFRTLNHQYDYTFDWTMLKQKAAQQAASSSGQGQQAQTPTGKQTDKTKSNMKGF
UniProt P48730: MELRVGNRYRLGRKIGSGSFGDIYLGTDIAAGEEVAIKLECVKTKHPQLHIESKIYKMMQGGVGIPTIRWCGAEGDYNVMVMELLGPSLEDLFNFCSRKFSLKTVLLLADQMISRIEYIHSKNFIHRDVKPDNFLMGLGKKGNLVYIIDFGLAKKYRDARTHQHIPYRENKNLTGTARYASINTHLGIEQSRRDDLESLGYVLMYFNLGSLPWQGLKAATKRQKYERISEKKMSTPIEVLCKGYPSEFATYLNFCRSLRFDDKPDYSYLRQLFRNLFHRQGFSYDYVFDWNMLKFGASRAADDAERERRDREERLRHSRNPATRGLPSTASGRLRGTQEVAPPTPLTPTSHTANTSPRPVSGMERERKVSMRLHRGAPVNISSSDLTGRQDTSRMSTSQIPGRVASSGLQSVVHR
UniProt Q08345: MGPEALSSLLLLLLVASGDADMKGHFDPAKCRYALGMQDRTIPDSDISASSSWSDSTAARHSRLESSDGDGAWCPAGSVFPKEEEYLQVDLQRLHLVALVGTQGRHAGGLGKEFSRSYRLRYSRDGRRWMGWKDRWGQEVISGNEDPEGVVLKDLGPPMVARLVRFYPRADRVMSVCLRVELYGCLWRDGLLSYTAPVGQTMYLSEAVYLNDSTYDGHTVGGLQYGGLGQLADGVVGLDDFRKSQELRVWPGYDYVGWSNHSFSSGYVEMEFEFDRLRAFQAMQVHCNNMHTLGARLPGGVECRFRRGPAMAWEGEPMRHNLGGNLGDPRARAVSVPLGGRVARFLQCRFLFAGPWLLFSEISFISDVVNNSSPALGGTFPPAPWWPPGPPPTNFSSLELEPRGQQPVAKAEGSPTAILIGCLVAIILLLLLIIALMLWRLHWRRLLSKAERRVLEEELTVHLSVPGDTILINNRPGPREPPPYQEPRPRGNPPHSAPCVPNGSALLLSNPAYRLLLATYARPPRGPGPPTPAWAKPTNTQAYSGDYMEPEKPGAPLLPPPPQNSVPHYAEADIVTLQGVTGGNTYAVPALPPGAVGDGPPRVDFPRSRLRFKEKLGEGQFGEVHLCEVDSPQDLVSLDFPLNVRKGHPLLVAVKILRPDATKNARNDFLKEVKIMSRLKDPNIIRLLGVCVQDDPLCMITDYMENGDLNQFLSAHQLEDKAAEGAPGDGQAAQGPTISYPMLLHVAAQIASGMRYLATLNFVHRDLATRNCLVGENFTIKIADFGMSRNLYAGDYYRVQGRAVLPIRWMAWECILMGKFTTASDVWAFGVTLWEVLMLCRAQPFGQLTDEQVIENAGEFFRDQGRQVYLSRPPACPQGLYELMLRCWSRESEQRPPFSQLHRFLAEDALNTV
UniProt Q9Y463, whole entry, looked up: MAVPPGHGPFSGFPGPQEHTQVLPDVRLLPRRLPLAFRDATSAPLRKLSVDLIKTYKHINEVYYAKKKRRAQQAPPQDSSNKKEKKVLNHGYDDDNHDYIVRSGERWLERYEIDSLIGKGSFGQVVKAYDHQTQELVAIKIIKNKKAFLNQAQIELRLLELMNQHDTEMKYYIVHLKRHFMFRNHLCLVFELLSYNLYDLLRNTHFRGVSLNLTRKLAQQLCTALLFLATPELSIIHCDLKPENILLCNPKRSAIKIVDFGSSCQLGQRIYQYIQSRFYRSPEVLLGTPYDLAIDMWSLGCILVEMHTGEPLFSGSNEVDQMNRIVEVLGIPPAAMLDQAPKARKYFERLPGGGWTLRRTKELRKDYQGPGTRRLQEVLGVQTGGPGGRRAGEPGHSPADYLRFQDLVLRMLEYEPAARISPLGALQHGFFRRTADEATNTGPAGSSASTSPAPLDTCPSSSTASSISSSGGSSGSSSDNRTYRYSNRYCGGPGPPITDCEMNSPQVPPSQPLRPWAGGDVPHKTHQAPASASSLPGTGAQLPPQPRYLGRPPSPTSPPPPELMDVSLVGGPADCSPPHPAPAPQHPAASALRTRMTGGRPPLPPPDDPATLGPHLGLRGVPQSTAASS

Columns and labels:
Test in all cases: number of time points (of 5) at which kinase-Nluc abundance scored as decreased, DMSO-normalised (count); higher = more persistent destabilization
Conditions in all cases: K562; 2-18 h
CAMK2A = CAMK2A (UniProt Q9UQM7)
CAMK2G = CAMK2G (UniProt Q13555)
CDK10 = CDK10 (UniProt Q15131)
CDK2 = CDK2 (UniProt P24941)
CDK3 = CDK3 (UniProt Q00526)
CDK5 = CDK5 (UniProt Q00535)
CDK6 = CDK6 (UniProt Q00534)
CHEK2 = CHEK2 (UniProt O96017)
CSF1R = CSF1R (UniProt P07333)
CSK = CSK (UniProt P41240)
CSNK1A1 = CSNK1A1 (UniProt P48729)
CSNK1D = CSNK1D (UniProt P48730)
DDR1 = DDR1 (UniProt Q08345)
DYRK1B = DYRK1B (UniProt Q9Y463)
DYRK2 = DYRK2 (UniProt Q92630)
EGFR = EGFR (UniProt P00533)
EGFR_G719S = EGFR_G719S (UniProt P00533)
EGFR_G719S_T790M = EGFR_G719S_T790M (UniProt P00533)
EGFR_L718V = EGFR_L718V (UniProt P00533)
EGFR_L858R = EGFR_L858R (UniProt P00533)

| SMILES | number of time points (CAMK2A) | number of time points (CAMK2G) | number of time points (CDK10) | number of time points (CDK2) | number of time points (CDK3) | number of time points (CDK5) | number of time points (CDK6) | number of time points (CHEK2) | number of time points (CSF1R) | number of time points (CSK) | number of time points (CSNK1A1) | number of time points (CSNK1D) | number of time points (DDR1) | number of time points (DYRK1B) | number of time points (DYRK2) | number of time points (EGFR) | number of time points (EGFR_G719S) | number of time points (EGFR_G719S_T790M) | number of time points (EGFR_L718V) | number of time points (EGFR_L858R) |
| --- | --- | --- | --- | --- | --- | --- | --- | --- | --- | --- | --- | --- | --- | --- | --- | --- | --- | --- | --- | --- |
| CC(=O)NCC(=O)N[C@@H](C)C(=O)N[C@@H](CCC(N)=O)C(=O)N[C@@H](Cc1ccccc1)C(=O)N[C@@H](CO)C(=O)N[C@@H](CCCCN)C(=O)N[C@H](C(=O)N[C@@H](C)C(=O)N[C@@H](C)C(=O)N[C@@H](CCCCN)C(=O)O)[C@@H](C)O (10 µM) | 0 | 0 | 0 | 0 | 0 | 0 | 0 | 0 | 0 | 0 | 0 | 0 | 0 | 0 | 0 | 0 | 0 | 0 | 0 | 0 |
| CC(C)(O)c1cc(Nc2cc(Oc3cn(C4CC4)nc3C3CCOCC3)ccn2)ccn1 (10 µM) | 0 | 0 | 0 | 0 | 0 | 0 | 0 | 0 | 0 | 0 | 0 | 0 | 0 | 0 | 0 | 0 | 0 | 0 | 0 | 0 |
| Cn1cc(-c2ccc3ncc(Cc4ccc5ncccc5c4)n3n2)cn1 (10 µM) | 0 | 0 | 0 | 0 | 0 | 0 | 0 | 0 | 0 | 0 | 0 | 0 | 0 | 0 | 0 | 0 | 0 | 0 | 0 | 0 |
| Clc1ccc(Nc2cccc(-c3cn[nH]c3)c2)cc1 (10 µM) | 0 | 0 | 0 | 0 | 0 | 0 | 0 | 0 | 0 | 0 | 0 | 0 | 0 | 0 | 0 | 0 | 0 | 0 | 0 | 0 |
| CN1CCC(c2ccccc2CC(C)(C)Nc2nc(N3CCOCC3)nc(-n3c(S(C)(=O)=O)nc4ccccc43)n2)CC1 (10 µM) | 0 | 0 | 0 | 0 | 0 | 0 | 0 | 0 | 0 | 0 | 0 | 0 | 0 | 0 | 0 | 0 | 0 | 0 | 0 | 0 |
| CC(C)n1cnnc1-c1cccc(NC(=O)c2cc3ccc(F)cc3[nH]2)n1 (2.5 µM) | 0 | 3 | 0 | 0 | 0 | 0 | 0 | 3 | 0 | 0 | 1 | 3 | 3 | 0 | 4 | 0 | 3 | 3 | 1 | 3 |
| COc1cccc2cc(-c3nc([C@H]4CC[C@H](C(=O)O)CC4)n4ncnc(N)c34)[nH]c12 (2.5 µM) | 0 | 0 | 0 | 0 | 0 | 0 | 0 | 0 | 3 | 0 | 3 | 2 | 2 | 2 | 4 | 0 | 3 | 1 | 1 | 0 |
| C[C@]1(O)C[C@@](N)(c2ccc(-c3nc4n(c3-c3ccccc3)COc3ccncc3-4)cc2)C1 [TAS-117 (hydrochloride)] (10 µM) | 0 | 0 | 0 | 0 | 0 | 0 | 0 | 0 | 0 | 0 | 0 | 0 | 0 | 0 | 0 | 0 | 0 | 0 | 0 | 0 |
| O=C(Nc1nc2cccc(-c3ccc(CN4CCS(=O)(=O)CC4)cc3)n2n1)C1CC1 [Filgotinib] (2.5 µM) | 0 | 0 | 0 | 0 | 0 | 0 | 0 | 0 | 0 | 0 | 0 | 0 | 0 | 0 | 0 | 0 | 0 | 0 | 0 | 0 |
| CCOC(=O)C1=C[C@]2(CC)CCCN3CCc4c(n1c1ccccc41)[C@@H]32 [Vinpocetine] (10 µM) | 0 | 0 | 0 | 0 | 0 | 0 | 0 | 0 | 0 | 0 | 0 | 0 | 0 | 0 | 0 | 0 | 0 | 0 | 0 | 0 |
| NC(=O)c1nc(-c2c(F)cccc2Cl)oc1Nc1ccc(C(=O)N2CCOCC2)cc1 (10 µM) | 0 | 0 | 0 | 0 | 0 | 0 | 0 | 0 | 0 | 0 | 0 | 0 | 0 | 0 | 0 | 0 | 0 | 0 | 0 | 0 |
| CC(C)(C)S(=O)(=O)c1cc2c(Nc3ccc4scnc4c3)ccnc2cc1OCCOCCOCCOCCOCC(=O)Nc1cccc2c1CN(C1CCC(=O)NC1=O)C2=O (stereo not given) [PROTAC RIPK degrader-6] (10 µM) | 0 | 0 | 0 | 0 | 0 | 0 | 0 | 0 | 0 | 0 | 0 | 0 | 0 | 0 | 0 | 0 | 0 | 0 | 0 | 0 |
| CC(C)(C)c1ccc(C(=O)Nc2cn3cc(-n4ccnc4)ccc3n2)cc1 (10 µM) | 0 | 0 | 0 | 0 | 0 | 0 | 0 | 0 | 0 | 0 | 0 | 0 | 0 | 0 | 0 | 0 | 0 | 0 | 0 | 0 |
| CC[C@H](C)[C@@H]1NC(=O)[C@@H]2CCCN2C(=O)[C@@H]2CCCN2C(=O)[C@@H]2CCCN2C(=O)[C@H](CC(C)C)NC(=O)CNC(=O)CNC(=O)[C@H](Cc2ccccc2)NC1=O [Heterophyllin B] (10 µM) | 0 | 0 | 0 | 0 | 0 | 0 | 0 | 0 | 0 | 0 | 0 | 0 | 0 | 0 | 0 | 0 | 0 | 0 | 0 | 0 |
| CCc1ccc(NC(=O)Nc2ccccc2)cc1 (10 µM) | 0 | 0 | 0 | 0 | 0 | 0 | 0 | 0 | 0 | 0 | 0 | 0 | 0 | 0 | 0 | 0 | 0 | 1 | 0 | 0 |
| C1=N/C2=N/c3ccc(OCCN4CCCC4)c(c3)COC/C=C/COCc3cccc(c3)C(=C1)N2 [Pacritinib] (2.5 µM) | 0 | 0 | 0 | 0 | 0 | 0 | 0 | 0 | 0 | 0 | 0 | 0 | 0 | 0 | 0 | 0 | 0 | 0 | 0 | 0 |
| C=CC(=O)Nc1cccc(Oc2nc(Nc3ccc(N4CCN(C)CC4)cc3)nc3ccsc23)c1 [Olmutinib] (2.5 µM) | 0 | 0 | 0 | 0 | 0 | 0 | 0 | 0 | 0 | 0 | 0 | 0 | 0 | 0 | 0 | 0 | 0 | 0 | 0 | 0 |
| O=C(CCc1ccc2n1[B-](F)(F)[N+]1=C(c3ccc[nH]3)C=CC1=C2)ON1C(=O)CCC1=O [Py-BODIPY-NHS ester] (2.5 µM) | 0 | 0 | 0 | 0 | 0 | 0 | 0 | 0 | 0 | 0 | 0 | 0 | 0 | 0 | 0 | 0 | 0 | 0 | 0 | 0 |
| COC(=O)/C=C/c1ccc(O)c(OC)c1 [Ferulic acid methyl ester] (10 µM) | 0 | 0 | 0 | 0 | 0 | 0 | 0 | 0 | 0 | 0 | 0 | 0 | 0 | 0 | 0 | 0 | 0 | 0 | 0 | 0 |
| Cn1sc(=O)n(Cc2ccccc2)c1=O (10 µM) | 0 | 0 | 0 | 0 | 0 | 0 | 0 | 0 | 0 | 0 | 0 | 0 | 0 | 0 | 0 | 0 | 0 | 0 | 0 | 0 |
| CC(C)=C/C=C1\O[C@@H]2CC(C)=CC(=O)[C@@H]2[C@]1(C)O [Bisabolangelone] (10 µM) | 0 | 0 | 0 | 0 | 0 | 0 | 0 | 0 | 0 | 0 | 0 | 0 | 0 | 0 | 0 | 0 | 0 | 0 | 0 | 0 |

Given tab-delimited: entries from further up
SMILES	number of time points (CAMK2A)	number of time points (CAMK2G)	number of time points (CDK10)	number of time points (CDK2)	number of time points (CDK3)	number of time points (CDK5)	number of time points (CDK6)	number of time points (CHEK2)	number of time points (CSF1R)	number of time points (CSK)	number of time points (CSNK1A1)	number of time points (CSNK1D)	number of time points (DDR1)	number of time points (DYRK1B)	number of time points (DYRK2)	number of time points (EGFR)	number of time points (EGFR_G719S)	number of time points (EGFR_G719S_T790M)	number of time points (EGFR_L718V)	number of time points (EGFR_L858R)
O=C(Nc1nc2cccc(-c3ccc(CN4CCS(=O)(=O)CC4)cc3)n2n1)C1CC1 [Filgotinib] (2.5 µM)	0	0	0	0	0	0	0	0	0	0	0	0	0	0	0	0	0	0	0	0
NC(=O)c1nc(-c2c(F)cccc2Cl)oc1Nc1ccc(C(=O)N2CCOCC2)cc1 (10 µM)	0	0	0	0	0	0	0	0	0	0	0	0	0	0	0	0	0	0	0	0
